The chains are these.
B1: il2ra_site2_2erj_sap_24_mot_HHH_b1_00607_000000269_0001_21_38_H_._HHH_b2_07520_0001_0000700023_0000001_0_0001_af2pred_0001_af2pred (protein)
chain: SSSSDEALEEAARVLLRLSELLLNGNPEEAEELVEEAERRLEELGNPFVAELVRKYYERAKSSSS
B2: il2ra_site2_2erj_sap_18_mot_HHH_b1_08056_000000037_0001_43_58_H_._HHH_b1_08417_0001_0000800010_0000001_0_0001 (protein)
chain: SSSSSDEEEEVEELLEEAKHIEDPEEALKVLSRAFEVAFEAGDPELASKVIKLAHELIRGSSSSS
B3: il2ra_site2_3nfp_normal_mot_HHH_b2_00429_000000100_0001_21_37_H_._HHH_b1_03508_af2_0001_0000300024_0000001_0 (protein)
chain: SSSSDEERLEKLLEEIEEAVRRGDEELFRKLAAELSHLIYELGDHEAFHLLADLLFKFAQGSSSS
B4: il2ra_site2_3nfp_normal_mot_HHH_b1_08097_000000036_0001_22_39_H_._HHH_b1_07967_0001_0000100011_0000001_0 (protein)
chain: SSSSDVEERLKELLEELQELSRKRDEEEFRRVAREIIQLVYENNDHEAFALLADIIFEFLGSSSS
B5: il2ra_site1_3nfp_sap_11_mot_9e5a4332513ba949eb20fa21f8df9fd0_0001_1_000000261_0001_36_51_H_._HHH_b1_04058_0001_0000700043_0000001_0_0001 (protein)
chain: SSSSTQEAAKLFHEAWRIAAELDDHEAAQRIYELMRRVIRTGDPELEEELRELFEELEERGSSSS
B6: il2ra_site2_2erj_normal_mot_HHH_b1_08185_000000063_0001_41_55_H_._HHH_b1_01940_0001_0000100005_0000001_0_af2pred_0001_1_af2pred_swapped (protein)
chain: SSSSTEVEHEVNELVFEADQLAEEGNPEEARKVLEEALEIAEENGNPRLQAFLRQSLKRLSSSSS
B7: il2ra_site2_2erj_normal_mot_HHH_b2_01275_af2_000000073_0001_23_39_H_._HHH_b2_01451_af2_0001_0000100001_0000001_0 (protein)
chain: SSSSSEELRRLYKLAVRLLRLLSEGDEEQLEEILEEIEELAEKLQSETAEELLRHVKERLSSSSS
B8: il2ra_site2_3nfp_normal_mot_HHH_b1_02297_000000279_0001_41_58_H_._HHH_b2_05784_0001_0000400086_0000001_0 (protein)
chain: SSSSDEERVEELLEQAEEKFKRGDEEEVRKLLAEATHIAYERNDFELFALVNEVLFRLEENSSSS
B9: il2ra_site2_2erj_sap_32_mot_HHH_b1_08046_000000210_0001_39_53_H_._9954946a0e56f4654b791dc7bfda0e44_0001_1_0001_0000200003_0000001_1_0001_af2pred_0001_af2pred (protein)
chain: SSSSDLLRRVFELAEEALELIEKGDPEEVEELLREIRELAEETGNKSIELALRKLEEELGSSSSS
B10: il2ra_site1_2b5i_normal_mot_HHH_b2_04910_000000118_0001_1_19_H_._HHH_b2_04126_0001_0000400013_0000001_0_af2pred_dldesign_0_af2pred (protein)
chain: SSSSSPESVRIRELVEEAERLFKEGKEEEARRVLEEALRIARAANDASAVKYLEALLKQLSSSSS
B11: il2ra_site1_2b5i_normal_mot_2cbe48e66a1f39b3fed734b245ab0a04_0001_000000015_0001_17_31_H_._HHH_b2_00579_0001_0000300020_0000001_1 (protein)
chain: SSSSSDEEREKQVRELLEEAKRIEDPHEAVRVLFRAASLAWQAGDEELLEEVEKVAREQSSSSSS
B12: il2ra_site1_3nfp_sap_15_mot_119b7766384adbe86006a62bce89dba1_0001_af2_000000059_0001_18_32_H_._603d184e1848ec444e697cdbd409e9a6_0001_1_af2_0001_0000100011_00000 … (protein)
chain: SSSSDINKRLEELHEEIIEAKERGDPELVEELLEEFEELVEEANSPVARLMLERLKEELESSSSS
B13: il2ra_site1_2b5i_normal_mot_HHH_b2_04633_000000016_0001_38_52_H_._HHH_b2_05139_0001_0000300030_0000001_0_af2pred_0001_af2pred_1 (protein)
chain: SSSSDEVFQRVYELWHRAARLHQNGNPEEARELLKEALEIAEENNDEKIREQLEEFLKKASSSSS
B14: il2ra_site2_3nfp_normal_mot_HHH_b1_00660_af2_000000090_0001_40_57_H_._HHH_b2_06895_0001_0000600025_0000001_0_af2pred_0001_af2pred (protein)
chain: SSSSDQEVRELLEEVEELLERGDYEEARRLLERAAELARQLGDFELFAEIVRLRRLLEELSSSSS
B15: il2ra_site2_3nfp_sap_20_mot_HHH_b1_07963_af2_000000042_0001_1_17_H_._HHH_b1_07089_0001_0000100005_0000001_0_0001 (protein)
chain: SSSSDEEKLEHLIEQALHAAEAHGNPEVAERIEELLEEFRRKGDPRAAIEAYKLMYEMLEGSSSS
B16: il2ra_site1_2b5i_normal_mot_HHH_b2_04910_000000118_0001_1_19_H_._HHH_b1_01633_0001_0000100002_0000001_0_af2pred_dldesign_0_af2pred (protein)
chain: SSSSSKGQEILRLFLEADKLFKEGKPEEAKKLLEEALKLAKEIKSNSLIKFIESALKQIESSSSS
B17: il2ra_site1_2b5i_normal_mot_22370d59370c406a0c205a431f537cfa_0001_af2_000000027_0001_1_31_H_._HHH_b2_07439_af2_0001_0000200015_0000001_0 (protein)
chain: SSSNNEEIREITRIVWRLRFKFNLSQEQAQELARLAAELEDRGISVEEIEEILEELAERLGSSSS
B18: il2ra_site2_2erj_sap_18_mot_HHH_b1_00133_000000007_0001_39_52_H_._HHH_b1_08152_0001_0000600018_0000001_0_0001 (protein)
chain: SSSDEEELRKVLEEIEKALEEGDVQKLNELIAEAIRLVERVNDPELLRILWELMREIHEKLSSSS
B19: il2ra_site1_3nfp_sap_14_mot_HHH_b1_02247_af2_000000083_0001_41_56_H_._HHH_b1_02540_0001_0000500010_0000001_0_0001_af2pred_0001_af2pred (protein)
chain: SSSSSDYEERVEELLEEAKRIEDPQEANKVLKEAIKLALENDDPELWKLVLRVLRELAGSSSSSS
B20: il2ra_site2_3nfp_normal_mot_ems_3hM_287_af2_000000177_0001_46_64_H_._HHH_b2_01231_af2_0001_0000800040_0000001_0_af2pred_0001_1_af2pred_swapped (protein)
chain: SSSSDEEEKEVEELLQKAKELLERGNPEEAEKVVRKAAHIAVKINNEELFMAASKLLEEIGSSSS
B21: il2ra_site1_2b5i_sap_14_mot_HHH_b2_01822_000000237_0001_40_54_H_._HHH_b2_07448_0001_0000100004_0000001_0_0001_af2pred_0001_af2pred_1 (protein)
chain: SSSSDKELNKFVAEVVDRLAEEFNLNAEQLNELIRLATRLIWRGVSPEEIEELLEKLARELSSSS
B22: il2ra_site2_3nfp_normal_mot_HHH_b1_06415_000000189_0001_43_56_H_._HHH_b1_00482_0001_0000100005_0000001_0 (protein)
chain: SSSSSRLEEFVEWILLAVRVAETERQREVIREALEHAKFRAEELNDEEAKELLREAEELLKSSSS
B23: il2ra_site1_3nfp_sap_19_mot_HHH_b1_07560_af2_000000209_0001_40_57_H_._HHH_b1_05998_0001_0000100001_0000001_0_0001 (protein)
chain: SEEEEEAEELLKRRLPPIAVRALELLARAVKEGNPNAERRLRYDEEVAEKLGDEDVVRAIELLRK
B24: il2ra_site1_1z92_normal_mot_b4c6f5f17c500cb19b718c065e23fe7c_0001_1_000000294_0001_37_51_H_._ems_ferrM_7375_0001_0000400020_0000001_0 (protein)
chain: WVTFHINGNDKKAEHLVKLAELHPQVRFEETPGNTVDIEVESPSLARDLELAAKMAGVDFEVEES

This note sets out measurements from article PMC10163288.

This is one part of the list.

In the assay the target is il2ra, P01589. The experiment in a line: yeast display titration.
What is called apparent Kd is a dissociation constant that holds for the conditions of the assay. Regarding B1, the “apparent Kd” value was “inactive: no binding seen”.

Consider B2, for which the “apparent Kd” value is “inactive: no binding seen”.

On to B3, for which the apparent Kd was inactive: > 412 nM.

As for B4, the “apparent Kd” value is “inactive: no binding seen”.

In the case of B5, the “apparent Kd” value was “inactive: no binding seen”.

Take B6: the “apparent Kd” value is “inactive: no binding seen”.

As for B7, the “apparent Kd” value is “inactive: no binding seen”.

As for B8, the “apparent Kd” value was “inactive: no binding seen”.

For B9, the “apparent Kd” value was “inactive: no binding seen”.

With B10, the “apparent Kd” value is “inactive: no binding seen”.

As to B11, the “apparent Kd” value was “inactive: no binding seen”.

For the molecule B12, the “apparent Kd” value is “inactive: no binding seen”.

Take B13: the “apparent Kd” value was “inactive: no binding seen”.

As to B14, the “apparent Kd” value is “inactive: no binding seen”.

As to B15, the “apparent Kd” value was “inactive: no binding seen”.

Consider B16, for which the “apparent Kd” value is “inactive: no binding seen”.

In the case of B17, the “apparent Kd” value is “inactive: no binding seen”.

Take B18: the “apparent Kd” value is “inactive: no binding seen”.

In the case of B19, the “apparent Kd” value was “inactive: no binding seen”.

For B20, the “apparent Kd” value was “inactive: no binding seen”.

Take B21: the “apparent Kd” value is “inactive: no binding seen”.

Turning to B22, the “apparent Kd” value is “inactive: no binding seen”.

Consider B23, for which the “apparent Kd” value is “inactive: no binding seen”.

In the case of B24, the “apparent Kd” value was “inactive: no binding seen”.
